Reference: patent US20160257957A1, “METHODS AND COMPOSITIONS FOR TREATMENT OF ANGELMAN SYNDROME AND AUTISM SPECTRUM DISORDERS” (PRESIDENT AND FELLOWS OF HARVARD COLLEGE, priority 2010, published 2016)
These are yes or no findings as the source states them, for the method shown. For some assays here: Binding seen in cells or lysates may run through a third protein. Some binding calls cover weakened binding; strength is not graded here.

Key:
[1] = molecular target: T1, Ube3A (endogenous, mouse brain lysate) (mouse), O08759; experiment: anti-Ube3A immunoprecipitation from brain lysates of wild type and Ube3A knockout mice, anti-Arc Western blot; conditions: remark: other sources report otherwise
T1 chain: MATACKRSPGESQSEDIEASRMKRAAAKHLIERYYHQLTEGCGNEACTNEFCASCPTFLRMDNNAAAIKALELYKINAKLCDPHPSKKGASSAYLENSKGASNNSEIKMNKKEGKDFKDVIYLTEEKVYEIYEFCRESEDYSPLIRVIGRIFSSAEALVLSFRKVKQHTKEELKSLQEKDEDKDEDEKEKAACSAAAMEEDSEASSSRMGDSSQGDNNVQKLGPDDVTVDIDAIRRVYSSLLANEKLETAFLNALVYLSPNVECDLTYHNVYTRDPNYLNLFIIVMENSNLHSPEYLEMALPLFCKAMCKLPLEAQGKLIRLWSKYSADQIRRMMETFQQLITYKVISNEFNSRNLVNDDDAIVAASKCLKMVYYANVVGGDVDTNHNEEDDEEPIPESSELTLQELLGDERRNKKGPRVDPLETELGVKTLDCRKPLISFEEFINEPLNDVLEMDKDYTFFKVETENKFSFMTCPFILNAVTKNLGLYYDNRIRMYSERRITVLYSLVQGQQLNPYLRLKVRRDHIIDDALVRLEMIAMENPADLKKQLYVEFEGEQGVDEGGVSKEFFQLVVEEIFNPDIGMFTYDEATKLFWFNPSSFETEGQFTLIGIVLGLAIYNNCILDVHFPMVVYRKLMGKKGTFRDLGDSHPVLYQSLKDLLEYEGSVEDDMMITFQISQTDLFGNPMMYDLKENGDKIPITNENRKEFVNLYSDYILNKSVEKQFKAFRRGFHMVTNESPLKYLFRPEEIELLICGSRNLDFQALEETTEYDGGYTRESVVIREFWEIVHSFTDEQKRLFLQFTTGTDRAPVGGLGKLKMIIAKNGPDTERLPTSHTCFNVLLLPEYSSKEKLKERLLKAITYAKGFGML

[2] = molecular target: T1, Ube3A (endogenous, mouse brain lysate) …; experiment: co-immunoprecipitation from mouse brain extracts (FIG. 9A); conditions: remark: other sources report otherwise

binding [1]: binds
binding [2]: binds
B1: Arc (endogenous, mouse brain lysate), Q9WV31 1-396 (protein, UniProt Q9WV31 1-396, looked up)
chain: MELDHMTTGGLHAYPAPRGGPAAKPNVILQIGKCRAEMLEHVRRTHRHLLTEVSKQVERELKGLHRSVGKLENNLDGYVPTGDSQRWKKSIKACLCRCQETIANLERWVKREMHVWREVFYRLERWADRLESMGGKYPVGSEPARHTVSVGVGGPEPYCQEADGYDYTVSPYAITPPPAAGELPEQESVEAQQYQSWGPGEDGQPSPGVDTQIFEDPREFLSHLEEYLRQVGGSEEYWLSQIQNHMNGPAKKWWEFKQGSVKNWVEFKKEFLQYSEGTLSREAIQRELELPQKQGEPLDQFLWRKRDLYQTLYVDAEEEEIIQYVVGTLQPKLKRFLRHPLPKTLEQLIQRGMEVQDGLEQAAEPSGTPLPTEDETEALTPALTSESVASDRTQPE
